The target in this experiment is EHBP1 bMERB domain V1183A (human) (UniProt Q8NDI1). The experiment can be described thus: condition: 500 µM GppNHp Rab8a_(1-176) titrated to 50 µM bMERB domain; ITC; 500 µM GppNHp Rab titrated into 50 µM bMERB domain; 20 mM Hepes 7.5, 50 mM NaCl, 1 mM MgCl2, 1 mM TCEP; 25 °C; one-site-binding model; both purified.

The chains behind the UniProt entries cited, without tags or fusion partners. Where a name states a change or a piece, a line headed by the entry shows the natural chain unless it says otherwise. A line that says so, or that is headed by a name, gives the form on record, which may keep a tag or linker. Residues count along the entry.
EHBP1 bMERB domain V1183A (Q8NDI1, form named): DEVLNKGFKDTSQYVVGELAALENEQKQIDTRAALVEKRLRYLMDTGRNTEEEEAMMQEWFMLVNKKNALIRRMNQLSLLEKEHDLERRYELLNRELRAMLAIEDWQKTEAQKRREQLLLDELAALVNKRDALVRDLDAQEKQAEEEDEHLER
UniProt P61006, residues 1-176: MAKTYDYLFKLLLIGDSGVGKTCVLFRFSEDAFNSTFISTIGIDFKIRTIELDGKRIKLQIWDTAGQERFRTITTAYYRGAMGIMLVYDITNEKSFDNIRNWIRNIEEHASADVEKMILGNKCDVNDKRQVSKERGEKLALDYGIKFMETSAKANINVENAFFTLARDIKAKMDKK

These are yes or no findings as the source states them, for the method shown.

For “Rab8a_(1-176) (human Rab8a G-domain) (from UniProt P61006 1-176) (domain or fragment)”, the binding result is given as “no binding”.

Values taken from PMC7442826.
